{"sequences": {"note": "Chains of the proteins cited; added tags and fusions are not shown.", "UniProt P54709, whole entry": "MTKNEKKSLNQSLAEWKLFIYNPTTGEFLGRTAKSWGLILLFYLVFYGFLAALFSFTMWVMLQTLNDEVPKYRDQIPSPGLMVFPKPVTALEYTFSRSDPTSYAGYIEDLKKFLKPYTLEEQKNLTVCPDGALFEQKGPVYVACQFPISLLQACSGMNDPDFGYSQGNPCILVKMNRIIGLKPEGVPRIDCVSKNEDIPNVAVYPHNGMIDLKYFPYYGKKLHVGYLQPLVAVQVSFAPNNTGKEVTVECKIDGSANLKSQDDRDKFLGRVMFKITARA"}, "source": "the supplement of paper PMC12595434", "about": "“Development of retinoid nuclear receptor pathway antagonists through targeting aldehyde dehydrogenase 1A3” (iScience, 2025)", "target": "ATP1B3 (UniProt P54709)", "assay": "melting temperature shift (DMSO Tm minus MBE1-treated Tm) in cellular thermal proteome profiling; higher = less thermal stabilization by MBE1 (negative = stabilized by MBE1)", "settings": "A375", "note": "The other results are listed elsewhere or left out. The data scatter; read single values as rough.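 Tm was set to 64 °C where no melting was found, and many curves are irregular.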", "data": [{"smiles": "CCc1cnccc1C(=O)Nc1cc2c(cc1F)NC(=O)CC2", "values": [{"measurement": "melting temperature shift", "setting": "MBE1 concentration: 100 nM", "result": -1.15, "unit": "°C"}, {"measurement": "melting temperature shift", "setting": "MBE1 concentration: 1 uM", "result": -0.922, "unit": "°C"}]}]}
